The results in this text go back to patent US20070275911A1 (priority 2003, published 2007).

The nature of the data set: general procedure: Fmoc solid-phase peptide synthesis; polystyrene resin preloaded with Fmoc hydroxylamine ether tether; TBTU/HOBT. As to conditions: whole synthesis, scale 0.25 mmol.

Substance Cys-Asn-Gly-Arg-Cys displayed a crude mass of 120 mg.
